Some of these results come from one statement about several compounds together. Where a SMILES comes first, the peptide text is derived from it. [ ]: non-standard residue; d: D form. dPhe(4-F) = N[C@H](Cc1ccc(F)cc1)C(=O)O
How the values were obtained:
Abeta monomers = target: T1, Abeta monomers (Homo sapiens, UniProt P05067); experiment: Peptide microarray, binding of FITC Abeta monomers to immobilized peptides; conditions: FIG. 1a
T1 construct: incubate with FITC Abeta monomers, oligomers, fibrils and FITC for 1 hour at room temperature
Description: The procedure for identifying peptides that bind specifically to amyloid beta monomer or specifically to amyloid beta oligomers and for determining the binding specificity of peptides within the meaning of the present invention can thus be as follows. Peptide microarrays comprising various peptides immobilized on a surface, such as derivatives of D3, are each incubated with different species of Abeta (such as monomers, oligomers and fibrils) labeled with a fluorescent dye. A peptide microarray is incubated with only the fluorescent dye to serve as the control. So as to ensure the reproducibility of the results, the incubation of the peptide microarrays can be carried out at least three times for each species. The binding of the fluorescence-labeled Abeta to the immobilized peptides is detected by way of the fluorescent dye. The more Abeta binds to the peptide, the higher the fluorescence signal is. The measured fluorescence signals of the reproductions are standardized, and the […]. This avoids binding of the fluorescence-labeled Abeta via the dye. The binding signals of an Abeta species to a peptide are then averaged. So as to determine the binding specificity, the quotient of the species to which the peptide is to specifically bind and another species is found.
Pretreatment of the peptide microarray slides: • briefly dip 3× in ethanol (96%) and then wash with H2O (30 minutes) • briefly dry by way of centrifuging
Preparation of monomers and oligomers: • size exclusion chromatography according to Johansson et al. 2006 (Johansson, A.-S. et al. Physiochemical characterization of the Alzheimer's disease-related peptides Aβ1-42Arctic and Aβ1-42 wt. FEBS Journal 273, 2618-2630 (2006)). • oligomers were fractionated at 8-9 ml, monomers at 16-17 ml.
Carrying out the peptide microarray: • incubate with FITC Abeta monomers, oligomers, fibrils and FITC for 1 hour at room temperature • wash: TBS-T briefly 3× (only TBS-T buffer is replaced), 3×10 minutes in a flacon, 3×H2O, 3×10 minutes • dry by way of centrifugation • The binding of the fluorescence-labeled Abeta to the immobilized peptides is detected by way of the fluorescent dye using the microarray reader FLA800 from Fuji Film. The more Abeta binds to the peptide, the higher is the fluorescence signal. • carrier set mode: slides • resolution: 10 μm • scan mode: high sensitivity (slow): scan pixel at 200 mm/s • laser: 473 nm • filter: 530 DF 20 • photomultiplier tube (PMT) HV (%): 100 • images were stored as .tif files
The software, AIDA Metrix, from Raytest was used to evaluate the fluorescence signals:
To ensure the reproducibility of the results, the incubation of the peptide microarrays is carried out at least three times for each species.
The measured fluorescence signals of the reproductions are standardized using a median-based standardization, and the control was subtracted from the signal. This avoided the binding of the fluorescence-labeled Abeta via the dye.
The binding signals of an Abeta species to a peptide were averaged.
So as to determine the binding specificity, the quotient of the species to which the peptide is to specifically bind and another species is created.
Example: binding specificity of peptide X to Abeta monomers=binding signal of peptides X to monomers/binding signal of peptides X to oligomers.

Abeta fibrils = target: T2, Abeta fibrils (Homo sapiens, UniProt P05067); experiment: ThT assay, formation of ThT positive Abeta fibrils; format: biochemical; conditions: co-incubation with the tested substances, FIGS. 3a and 3b
T2 construct: Pre-incubated Abeta was co-incubated with the peptides

**Q.** How did the “Difference between the binding signal of Abeta monomers and Abeta oligomers and/or Abeta fibrils” value (“Difference between the binding signal” below) (Abeta monomers) turn out when `CC[C@@H](C)[C@@H](NC(=O)[C@@H](CCCNC(=N)N)NC(=O)[C@@H](CCCCN)NC(=O)[C@H](N)CCCNC(=N)N)C(=O)N[C@H](CCCNC(=N)N)C(=O)N[C@H](CC(C)C)C(=O)N[C@@H](C(=O)N[C@H](Cc1ccc(O)cc1)C(=O)N[C@H](Cc1c[nH]cn1)C(=O)N[C@H](Cc1c[nH]c2ccccc12)C(=O)N[C@H](CC(N)=O)C(=O)N[C@H](CCCNC(=N)N)C(N)=O)C(C)C` [ANK4, rkrirlvyhwnr] (H-[dR][dK][dR][dI][dR][dL][dV][dY][dH][dW][dN][dR]-NH2) was run?
**A.** ≥ 1.5 rfu

**Q.** And the “Formation of ThT positive Abeta fibrils” value (Abeta fibrils)?
**A.** considerably reduce the formation of ThT positive Abeta fibrils

**Q.** For `CC(C)C[C@@H](NC(=O)[C@@H](CCCNC(=N)N)NC(=O)[C@H](NC(=O)[C@@H](CCCNC(=N)N)NC(=O)[C@@H](CCCCN)NC(=O)[C@H](N)CCCNC(=N)N)C(C)C)C(=O)N[C@@H](C(=O)N[C@H](Cc1ccc(O)cc1)C(=O)N[C@H](Cc1c[nH]cn1)C(=O)N[C@H](CCCCN)C(=O)N[C@H](CCCCN)C(=O)N[C@H](CCCNC(=N)N)C(N)=O)C(C)C` [ANK5, rkrvrlvyhkkr] (H-[dR][dK][dR][dV][dR][dL][dV][dY][dH][dK][dK][dR]-NH2), which “Difference between the binding signal” value (Abeta monomers) is on record?
**A.** ≥ 1.5 rfu

**Q.** And the “Formation of ThT positive Abeta fibrils” value (Abeta fibrils)?
**A.** considerably reduce the formation of ThT positive Abeta fibrils

**Q.** `CC[C@@H](C)[C@@H](NC(=O)[C@@H](Cc1c[nH]cn1)NC(=O)[C@H](NC(=O)[C@@H](Cc1ccc(F)cc1)NC(=O)[C@@H](CC(C)C)NC(=O)[C@@H](CCCNC(=N)N)NC(=O)[C@H](NC(=O)[C@@H](CCCNC(=N)N)NC(=O)[C@@H](CCCCN)NC(=O)[C@H](N)CCCNC(=N)N)C(C)C)[C@H](C)O)C(=O)N[C@H](CCCCN)C(=O)N[C@H](CCCNC(=N)N)C(N)=O` [ANK7, rkrvrl02thikr] (H-[dR][dK][dR][dV][dR][dL][dPhe(4-F)][dT][dH][dI][dK][dR]-NH2) was tested. Which “Difference between the binding signal” value (Abeta monomers) did it give?
**A.** ≥ 1.5 rfu

**Q.** And the “Formation of ThT positive Abeta fibrils” value (Abeta fibrils)?
**A.** considerably reduce the formation of ThT positive Abeta fibrils

**Q.** How did the “Difference between the binding signal” value (Abeta monomers) turn out when “rkrirl06yhikr (RKRIRLGYHIKR; D-amino acids; D-phenylglycine; D-Peptide, ANK17 (with Phenylglycine (D) at Position 7 instead of Glycine)) [D3 derivative; 06: Phenylglycine (D)]” was run?
**A.** ≥ 1.5 rfu

**Q.** “rkrirl06yhinr (RKRIRLGYHINR; D-amino acids; D-phenylglycine; D-Peptide, ANK2 (with Phenylglycine (D) at Position 7 instead of Glycine)) [D3 derivative; 06: Phenylglycine (D)]” was tested. Which “Difference between the binding signal” value (Abeta monomers) did it give?
**A.** ≥ 1.5 rfu

**Q.** What about the “Formation of ThT positive Abeta fibrils” value (Abeta fibrils) of the same compound?
**A.** considerably reduce the formation of ThT positive Abeta fibrils

**Q.** How did the “Difference between the binding signal” value (Abeta monomers) turn out when “rkrirl06yhwnr (RKRIRLGYHWNR; D-amino acids; D-phenylglycine; D-Peptide, ANK3 (with Phenylglycine (D) at Position 7 instead of Glycine)) [D3 derivative; 06: Phenylglycine (D)]” was run?
**A.** ≥ 1.5 rfu

**Q.** And the “Formation of ThT positive Abeta fibrils” value (Abeta fibrils)?
**A.** considerably reduce the formation of ThT positive Abeta fibrils

**Q.** Which results are given for “rkrirlvyhinr (RKRIRLVYHINR; D-amino acids; D-Peptide, ANK1) [D-enantiomeric 12-mer peptide derived from D3]”?
**A.** Difference between the binding signal of Abeta monomers and Abeta oligomers and/or Abeta fibrils (Abeta monomers): ≥ 1.5 rfu; Formation of ThT positive Abeta fibrils (Abeta fibrils): considerably reduce the formation of ThT positive Abeta fibrils

**Q.** Which “Difference between the binding signal” value (Abeta monomers) does the source give for “rprvrl06yhwnr (RPRVRLGYHWNR; D-amino acids; D-phenylglycine; D-Peptide, ANK15 (with Phenylglycine (D) at Position 7 instead of Glycine)) [D3 derivative; 06: Phenylglycine (D)]” here?
**A.** ≥ 1.5 rfu
